Results as given in the supplement of paper PMC12819154, “High-throughput peptide-centric local stability assay extends protein–ligand identification to membrane proteins, tissues and bacteria” (Nature Structural & Molecular Biology, 2025).
The other results are listed elsewhere or left out. Small differences around the control level are noise.

By UniProt entry, the sequences of proteins in these tests, tags left out. Where a name states a change or a piece, a line headed by the entry shows the natural chain unless it says otherwise.
UniProt O75312: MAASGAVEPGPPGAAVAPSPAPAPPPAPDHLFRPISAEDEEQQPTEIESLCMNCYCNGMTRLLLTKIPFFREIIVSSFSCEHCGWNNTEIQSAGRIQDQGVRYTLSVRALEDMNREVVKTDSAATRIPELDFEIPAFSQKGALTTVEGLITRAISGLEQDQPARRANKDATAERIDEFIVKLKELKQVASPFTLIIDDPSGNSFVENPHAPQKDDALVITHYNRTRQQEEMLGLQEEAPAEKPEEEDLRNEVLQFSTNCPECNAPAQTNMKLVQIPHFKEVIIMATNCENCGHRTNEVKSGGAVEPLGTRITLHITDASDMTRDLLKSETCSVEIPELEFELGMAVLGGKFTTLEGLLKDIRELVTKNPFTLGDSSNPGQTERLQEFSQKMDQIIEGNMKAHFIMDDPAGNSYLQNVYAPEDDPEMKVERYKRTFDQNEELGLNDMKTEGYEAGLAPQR
UniProt O60583: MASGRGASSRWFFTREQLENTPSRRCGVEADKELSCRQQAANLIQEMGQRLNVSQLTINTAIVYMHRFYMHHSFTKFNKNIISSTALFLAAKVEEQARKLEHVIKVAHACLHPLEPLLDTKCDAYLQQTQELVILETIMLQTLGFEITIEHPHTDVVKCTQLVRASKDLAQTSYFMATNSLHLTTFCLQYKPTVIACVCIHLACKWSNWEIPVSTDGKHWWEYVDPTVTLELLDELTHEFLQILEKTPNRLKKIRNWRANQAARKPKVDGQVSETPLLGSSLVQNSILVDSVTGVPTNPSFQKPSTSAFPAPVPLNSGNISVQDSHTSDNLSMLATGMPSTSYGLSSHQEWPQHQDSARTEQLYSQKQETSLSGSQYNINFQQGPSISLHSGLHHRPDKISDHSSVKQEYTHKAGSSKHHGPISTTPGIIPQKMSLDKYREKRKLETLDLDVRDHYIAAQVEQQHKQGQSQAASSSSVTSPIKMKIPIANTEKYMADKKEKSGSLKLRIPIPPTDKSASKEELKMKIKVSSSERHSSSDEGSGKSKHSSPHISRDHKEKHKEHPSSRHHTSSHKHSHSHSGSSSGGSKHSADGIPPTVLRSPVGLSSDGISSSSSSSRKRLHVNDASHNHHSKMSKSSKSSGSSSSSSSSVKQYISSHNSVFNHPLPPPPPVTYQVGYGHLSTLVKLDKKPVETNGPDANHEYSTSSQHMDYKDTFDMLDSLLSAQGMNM
UniProt O75146: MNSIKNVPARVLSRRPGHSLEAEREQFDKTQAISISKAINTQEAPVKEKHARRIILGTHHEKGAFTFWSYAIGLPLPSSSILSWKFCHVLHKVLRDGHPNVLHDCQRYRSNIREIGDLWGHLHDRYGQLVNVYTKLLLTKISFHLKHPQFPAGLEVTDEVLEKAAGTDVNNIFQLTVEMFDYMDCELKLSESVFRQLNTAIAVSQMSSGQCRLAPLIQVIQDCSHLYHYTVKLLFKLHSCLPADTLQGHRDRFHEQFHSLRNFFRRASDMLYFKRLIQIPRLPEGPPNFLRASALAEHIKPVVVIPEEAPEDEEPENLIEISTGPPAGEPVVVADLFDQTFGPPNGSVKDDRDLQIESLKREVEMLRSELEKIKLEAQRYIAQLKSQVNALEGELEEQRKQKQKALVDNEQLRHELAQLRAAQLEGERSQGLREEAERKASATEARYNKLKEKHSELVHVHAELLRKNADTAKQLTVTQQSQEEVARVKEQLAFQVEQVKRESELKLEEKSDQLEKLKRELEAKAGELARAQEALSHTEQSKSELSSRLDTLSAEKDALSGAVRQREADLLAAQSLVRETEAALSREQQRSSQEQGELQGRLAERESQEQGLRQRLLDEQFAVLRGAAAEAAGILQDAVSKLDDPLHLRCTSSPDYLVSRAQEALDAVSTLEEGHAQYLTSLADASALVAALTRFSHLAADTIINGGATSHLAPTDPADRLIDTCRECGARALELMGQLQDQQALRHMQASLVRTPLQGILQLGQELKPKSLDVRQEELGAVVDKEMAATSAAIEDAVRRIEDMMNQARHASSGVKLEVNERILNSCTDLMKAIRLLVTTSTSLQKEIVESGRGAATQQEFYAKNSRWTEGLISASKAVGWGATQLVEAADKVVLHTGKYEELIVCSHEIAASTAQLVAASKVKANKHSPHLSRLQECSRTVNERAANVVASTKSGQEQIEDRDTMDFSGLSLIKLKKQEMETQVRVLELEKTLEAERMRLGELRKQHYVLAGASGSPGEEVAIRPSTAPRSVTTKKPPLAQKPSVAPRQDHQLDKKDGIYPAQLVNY
UniProt O43542: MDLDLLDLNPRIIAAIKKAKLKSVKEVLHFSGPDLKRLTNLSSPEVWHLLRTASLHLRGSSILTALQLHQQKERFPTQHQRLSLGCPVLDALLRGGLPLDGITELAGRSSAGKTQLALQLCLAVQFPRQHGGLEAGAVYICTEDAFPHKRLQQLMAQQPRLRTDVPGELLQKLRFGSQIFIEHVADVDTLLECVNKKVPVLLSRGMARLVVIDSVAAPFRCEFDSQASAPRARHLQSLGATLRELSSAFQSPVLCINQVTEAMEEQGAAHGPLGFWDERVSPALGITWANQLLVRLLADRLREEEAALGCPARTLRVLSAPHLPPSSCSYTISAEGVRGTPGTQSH
UniProt O43521, whole entry, looked up: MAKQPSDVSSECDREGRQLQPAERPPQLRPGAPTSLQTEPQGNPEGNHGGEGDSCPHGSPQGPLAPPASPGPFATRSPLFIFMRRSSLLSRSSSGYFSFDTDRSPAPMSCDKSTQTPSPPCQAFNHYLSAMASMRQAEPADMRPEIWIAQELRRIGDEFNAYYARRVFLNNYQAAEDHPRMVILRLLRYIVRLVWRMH
UniProt O60306: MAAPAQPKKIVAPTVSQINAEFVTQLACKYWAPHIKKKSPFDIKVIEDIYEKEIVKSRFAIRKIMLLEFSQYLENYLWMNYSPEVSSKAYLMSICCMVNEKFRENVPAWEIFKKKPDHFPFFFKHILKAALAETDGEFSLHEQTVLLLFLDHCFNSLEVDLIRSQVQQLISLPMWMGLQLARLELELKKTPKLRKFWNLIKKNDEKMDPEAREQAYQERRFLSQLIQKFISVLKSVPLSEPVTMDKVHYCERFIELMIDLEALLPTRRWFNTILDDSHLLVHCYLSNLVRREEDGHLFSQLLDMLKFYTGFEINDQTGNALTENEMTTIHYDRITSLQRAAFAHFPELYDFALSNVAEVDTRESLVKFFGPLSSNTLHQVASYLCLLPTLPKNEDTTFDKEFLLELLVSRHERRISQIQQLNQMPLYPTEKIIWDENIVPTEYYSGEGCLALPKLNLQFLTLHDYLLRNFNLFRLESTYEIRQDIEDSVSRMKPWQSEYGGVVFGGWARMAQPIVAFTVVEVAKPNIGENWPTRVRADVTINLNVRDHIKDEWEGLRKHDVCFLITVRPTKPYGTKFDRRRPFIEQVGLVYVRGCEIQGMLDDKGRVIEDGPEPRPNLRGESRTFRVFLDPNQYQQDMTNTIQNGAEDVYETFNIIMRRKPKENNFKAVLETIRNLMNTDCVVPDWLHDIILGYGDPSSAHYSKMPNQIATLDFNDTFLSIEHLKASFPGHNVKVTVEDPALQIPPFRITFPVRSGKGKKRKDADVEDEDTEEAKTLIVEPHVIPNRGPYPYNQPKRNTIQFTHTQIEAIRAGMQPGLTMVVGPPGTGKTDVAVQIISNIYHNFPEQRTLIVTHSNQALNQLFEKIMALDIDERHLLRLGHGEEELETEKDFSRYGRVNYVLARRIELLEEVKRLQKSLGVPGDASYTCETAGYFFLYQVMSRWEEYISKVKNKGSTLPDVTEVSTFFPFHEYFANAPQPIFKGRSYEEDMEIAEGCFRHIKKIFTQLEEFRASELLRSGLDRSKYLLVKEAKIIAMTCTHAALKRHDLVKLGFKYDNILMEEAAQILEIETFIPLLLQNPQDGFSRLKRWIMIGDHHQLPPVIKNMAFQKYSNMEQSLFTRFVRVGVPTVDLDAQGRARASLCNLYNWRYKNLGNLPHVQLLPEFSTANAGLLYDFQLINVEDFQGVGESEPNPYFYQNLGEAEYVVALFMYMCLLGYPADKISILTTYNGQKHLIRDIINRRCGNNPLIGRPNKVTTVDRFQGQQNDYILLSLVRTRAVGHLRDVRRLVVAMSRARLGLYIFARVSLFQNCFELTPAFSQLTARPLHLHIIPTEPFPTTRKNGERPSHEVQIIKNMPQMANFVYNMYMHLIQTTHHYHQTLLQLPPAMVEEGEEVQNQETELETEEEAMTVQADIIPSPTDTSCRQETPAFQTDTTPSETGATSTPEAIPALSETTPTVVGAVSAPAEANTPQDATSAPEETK
UniProt O60927: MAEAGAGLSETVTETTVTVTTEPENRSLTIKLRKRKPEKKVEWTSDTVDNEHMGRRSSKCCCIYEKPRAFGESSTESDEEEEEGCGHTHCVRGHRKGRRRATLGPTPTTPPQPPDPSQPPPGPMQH
UniProt O60825: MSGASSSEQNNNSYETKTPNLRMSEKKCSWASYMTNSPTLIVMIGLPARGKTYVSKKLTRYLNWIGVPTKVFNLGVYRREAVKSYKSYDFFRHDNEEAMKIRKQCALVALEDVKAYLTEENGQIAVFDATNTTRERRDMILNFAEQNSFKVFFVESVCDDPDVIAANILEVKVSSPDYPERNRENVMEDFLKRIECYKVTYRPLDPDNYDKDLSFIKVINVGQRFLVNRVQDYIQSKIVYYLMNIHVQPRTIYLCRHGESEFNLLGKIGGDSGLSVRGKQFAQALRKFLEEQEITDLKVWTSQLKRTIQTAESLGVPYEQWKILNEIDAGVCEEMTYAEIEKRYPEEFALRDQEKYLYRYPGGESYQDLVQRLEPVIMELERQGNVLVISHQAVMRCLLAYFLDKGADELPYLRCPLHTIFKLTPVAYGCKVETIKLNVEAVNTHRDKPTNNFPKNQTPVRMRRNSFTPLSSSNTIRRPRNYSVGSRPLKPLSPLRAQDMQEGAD
UniProt O60870: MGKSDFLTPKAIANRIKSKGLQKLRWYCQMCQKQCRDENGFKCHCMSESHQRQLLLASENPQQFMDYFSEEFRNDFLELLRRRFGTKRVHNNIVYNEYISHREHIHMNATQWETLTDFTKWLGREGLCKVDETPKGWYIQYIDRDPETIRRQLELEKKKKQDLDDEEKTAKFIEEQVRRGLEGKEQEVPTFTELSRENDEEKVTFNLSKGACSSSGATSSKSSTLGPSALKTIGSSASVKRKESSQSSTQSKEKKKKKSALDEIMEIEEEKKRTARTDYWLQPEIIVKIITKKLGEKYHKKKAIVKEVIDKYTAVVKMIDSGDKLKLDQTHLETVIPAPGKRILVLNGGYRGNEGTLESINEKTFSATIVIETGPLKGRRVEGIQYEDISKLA

What follows are targets tested with CN[C@@H]1C[C@H]2O[C@@](C)([C@@H]1OC)n1c3ccccc3c3c4c(c5c6ccccc6n2c5c31)C(=O)NC4 [staurosporine] (assay: log2 fold change of tryptic peptide abundance, ligand vs vehicle (limited proteolysis) (log2 ratio); higher = more trypsin-susceptible (destabilized)). Conditions: ligand concentration: 20 uM; sample: K562 cleared lysate; digestion: 4 min, 22 C (HT-PELSA RT4min, Orbitrap Astral).

Row | Target | log2 fold change
1 | UniProt O75312 (peptide sequence: TEGYEAGLAPQR, peptide start residue: 448) | 0.0953
2 | CCNT2 (peptide sequence: TEQLYSQK, peptide start residue: 360) (UniProt O60583) | 0.186
3 | HIP1R (peptide sequence: DGHPNVLHDCQR, peptide start residue: 96) (UniProt O75146) | 0.646
4 | XRCC3 (peptide sequence: EVLHFSGPDLK, peptide start residue: 26) (UniProt O43542) | -0.457
5 | BCL2L11 (peptide sequence: SPLFIFMR, peptide start residue: 77) (UniProt O43521) | -0.324
6 | AQR (peptide sequence: YWAPHIK, peptide start residue: 30) (UniProt O60306) | -0.17
7 | PPP1R11 (peptide sequence: ATLGPTPTTPPQPPDPSQPPPGPMQH, peptide start residue: 101) (UniProt O60927) | -0.227
8 | PFKFB2 (peptide sequence: YLNWIGVPTK, peptide start residue: 61) (UniProt O60825) | -0.301
9 | KIN (peptide sequence: KQDLDDEEK, peptide start residue: 160) (UniProt O60870) | -0.643
